From PubChem BioAssay record AID504749 (NCATS, 2011).

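Malaria parasite (P. falciparum) lines kept in red blood cells; parasite DNA is measured by SYBR Green fluorescence after lysis, 72 h after compound addition. Each compound was titrated across a series from about 0.000037 to 29 µM. The number is the fitted AC50, the concentration giving a half-maximal change in signal; a lower value means higher potency, whether the curve shows a decrease or an increase. Calls follow the curve class and fit quality: every row here is inconclusive, covering signal-raising curves and weak, poorly fitted, partial or highest-dose-only inhibition curves.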

Values are in µM. Every entry below has the call inconclusive. Only part of the assay is shown, chiefly results filed as inconclusive. Potencies fitted to partial, single-point or poorly fitting curves are rough. Some entries filed as inconclusive have a full curve. The first word of each remark tells which way the curve ran; it can be opposite to the aim of the assay.

* Cn1cc(NC(=O)c2cc(NC(=O)c3cc(NC=O)cn3C)cn2C)cc1C(=O)NCCC(=N)N [CP297] : Potency 13.46 µM (inhibitor, single point)
* CC(C)(C)NC[C@H](O)COc1cccc2c1CCCC2=O [CP315] : Potency 2.031 µM (inhibitor, single point)
* CC(C)(C)NC[C@H](O)COc1cccc2c1CCCC2=O [W2] : Potency 0.8087 µM (inhibitor, full curve, poor fit)
* CC(C)(C)NC[C@H](O)COc1cccc2c1CCCC2=O [GB4] : Potency 4.053 µM (inhibitor, partial curve, poor fit)
* CC(C)(C)NC[C@H](O)COc1cccc2c1CCCC2=O [CP215] : Potency 6.424 µM (inhibitor, single point)
* CC(C)(C)NC[C@H](O)COc1cccc2c1CCCC2=O [DIV14] : Potency 9.074 µM (inhibitor, partial curve, poor fit)
* CCN(CC)C(=O)N1CCN(C)CC1 [CP266] : Potency 0.0032 µM (activator, full curve)
* CNC1C(OC2C(O[C@@H]3C(O)C(O)[C@@H](N=C(N)N)C(O)C3N=C(N)N)OC(C)[C@@]2(O)CO)OC(CO)C(O)C1O (stereo not given in full) [CP203] : Potency 0.0007 µM (activator)
* CNC1C(OC2C(O[C@@H]3C(O)C(O)[C@@H](N=C(N)N)C(O)C3N=C(N)N)OC(C)[C@@]2(O)CO)OC(CO)C(O)C1O (stereo not given in full) [CP297] : Potency 0.0043 µM (inhibitor, full curve, poor fit)
* CNC1C(OC2C(O[C@@H]3C(O)C(O)[C@@H](N=C(N)N)C(O)C3N=C(N)N)OC(C)[C@@]2(O)CO)OC(CO)C(O)C1O (stereo not given in full) [PAD] : Potency 10 µM (inhibitor, single point)
* CC(C)C(=O)OCC(=O)[C@@]12OC(C3CCCCC3)O[C@@H]1CC1C3CCC4=CC(=O)C=C[C@]4(C)C3[C@@H](O)C[C@@]12C (stereo not given in full) [PC26] : Potency 0.5358 µM (inhibitor, full curve, poor fit)
* CC(C)C(=O)OCC(=O)[C@@]12OC(C3CCCCC3)O[C@@H]1CC1C3CCC4=CC(=O)C=C[C@]4(C)C3[C@@H](O)C[C@@]12C (stereo not given in full) [DIV30] : Potency 0.3013 µM (inhibitor, full curve)
* COc1cc(/C=C2\CCC/C(=C\c3ccc(O)c(OC)c3)C2=O)ccc1O [C2A] : Potency 12.59 µM (inhibitor, single point)
* COc1cc(/C=C2\CCC/C(=C\c3ccc(O)c(OC)c3)C2=O)ccc1O [CP256] : Potency 17.78 µM (inhibitor, partial curve, poor fit)
* COc1cc(/C=C2\CCC/C(=C\c3ccc(O)c(OC)c3)C2=O)ccc1O [CP268] : Potency 1.069 µM (inhibitor, partial curve, poor fit)
* COc1cc(/C=C2\CCC/C(=C\c3ccc(O)c(OC)c3)C2=O)ccc1O [ATS189] : Potency 11.22 µM (inhibitor, single point)
* COc1cc(/C=C2\CCC/C(=C\c3ccc(O)c(OC)c3)C2=O)ccc1O [CP192] : Potency 19.01 µM (inhibitor, single point)
* COc1cc(/C=C2\CCC/C(=C\c3ccc(O)c(OC)c3)C2=O)ccc1O [CP329] : Potency 19.01 µM (inhibitor, single point)
* COc1cc(/C=C2\CCC/C(=C\c3ccc(O)c(OC)c3)C2=O)ccc1O [CP201] : Potency 19.01 µM (inhibitor, single point)

The first 2 entries again:

{"compound": "Cn1cc(NC(=O)c2cc(NC(=O)c3cc(NC=O)cn3C)cn2C)cc1C(=O)NCCC(=N)N", "tested on / at": "CP297", "Potency (µM)": "13.46", "curve": "inhibitor, single point"}
{"compound": "CC(C)(C)NC[C@H](O)COc1cccc2c1CCCC2=O", "tested on / at": "CP315", "Potency (µM)": "2.031", "curve": "inhibitor, single point"}